The source of these data is publication PMC2359927.

Sequences of proteins named here, by UniProt entry; tags and fusion partners are left off. A change or cut given only in a name is not applied to a line headed by its entry. A line that says so, or that is headed by a name, gives the form on record, which may keep a tag or linker.
UniProt P10415: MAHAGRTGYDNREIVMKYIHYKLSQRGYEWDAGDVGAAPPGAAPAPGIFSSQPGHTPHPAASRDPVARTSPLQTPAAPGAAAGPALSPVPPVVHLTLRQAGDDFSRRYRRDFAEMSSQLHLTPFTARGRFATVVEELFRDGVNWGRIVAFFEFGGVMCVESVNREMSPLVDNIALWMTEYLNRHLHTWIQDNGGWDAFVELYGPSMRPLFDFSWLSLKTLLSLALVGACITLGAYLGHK
survivin-ΔEx3(ΔBH2) (O15392-3, form named): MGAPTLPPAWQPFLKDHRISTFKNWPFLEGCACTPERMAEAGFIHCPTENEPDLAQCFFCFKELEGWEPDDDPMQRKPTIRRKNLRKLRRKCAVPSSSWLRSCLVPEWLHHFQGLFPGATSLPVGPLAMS

The target in the assay is endogenous Bcl-2 (human (endogenous in HeLa)) (UniProt P10415). Kind of assay: co-IP; in vivo co-immunoprecipitation with an anti-Bcl-2 mAb from extracts of HeLa cells transfected with the indicated plasmids.

These are yes or no findings as the source states them, for the method shown. In cells and extracts the contact can be indirect.

Regarding “survivin-ΔEx3(ΔBH2) (from UniProt O15392-3 1-137)”, the binding result is on record as “no binding”.
